Drawing on patent US20240327417A1, “HETEROCYCLIC COMPOUNDS” (BeiGene Switzerland GmbH, priority 2021, published 2024), this text covers IC50 for 7 molecules.

Sequences of proteins named here, by UniProt entry; tags and fusion partners are left off. Residues count along the entry.
UniProt Q13574, 1-929 isoform 4: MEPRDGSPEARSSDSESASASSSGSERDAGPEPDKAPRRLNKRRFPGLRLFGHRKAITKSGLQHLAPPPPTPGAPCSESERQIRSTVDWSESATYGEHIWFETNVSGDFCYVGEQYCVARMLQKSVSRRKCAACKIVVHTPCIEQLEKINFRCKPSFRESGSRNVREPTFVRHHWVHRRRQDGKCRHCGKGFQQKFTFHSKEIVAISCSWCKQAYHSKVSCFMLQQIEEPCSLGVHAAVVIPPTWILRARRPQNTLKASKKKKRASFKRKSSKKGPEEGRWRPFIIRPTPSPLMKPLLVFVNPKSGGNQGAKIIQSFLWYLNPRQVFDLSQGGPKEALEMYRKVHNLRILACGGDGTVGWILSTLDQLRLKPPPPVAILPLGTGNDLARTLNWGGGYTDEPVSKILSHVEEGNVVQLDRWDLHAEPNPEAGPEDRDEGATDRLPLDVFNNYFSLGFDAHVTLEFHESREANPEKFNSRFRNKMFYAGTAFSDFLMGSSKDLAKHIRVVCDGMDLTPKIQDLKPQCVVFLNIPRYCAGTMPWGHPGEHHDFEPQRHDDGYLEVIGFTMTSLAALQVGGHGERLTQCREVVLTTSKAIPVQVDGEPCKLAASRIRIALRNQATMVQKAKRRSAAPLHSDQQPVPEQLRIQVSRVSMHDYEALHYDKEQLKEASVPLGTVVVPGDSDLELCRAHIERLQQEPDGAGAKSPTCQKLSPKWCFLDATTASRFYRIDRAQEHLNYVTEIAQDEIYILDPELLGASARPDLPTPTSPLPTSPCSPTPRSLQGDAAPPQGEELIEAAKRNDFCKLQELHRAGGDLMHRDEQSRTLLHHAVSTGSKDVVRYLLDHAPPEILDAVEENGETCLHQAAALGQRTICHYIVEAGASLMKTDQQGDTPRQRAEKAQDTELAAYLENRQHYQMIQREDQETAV
UniProt P23743, whole entry: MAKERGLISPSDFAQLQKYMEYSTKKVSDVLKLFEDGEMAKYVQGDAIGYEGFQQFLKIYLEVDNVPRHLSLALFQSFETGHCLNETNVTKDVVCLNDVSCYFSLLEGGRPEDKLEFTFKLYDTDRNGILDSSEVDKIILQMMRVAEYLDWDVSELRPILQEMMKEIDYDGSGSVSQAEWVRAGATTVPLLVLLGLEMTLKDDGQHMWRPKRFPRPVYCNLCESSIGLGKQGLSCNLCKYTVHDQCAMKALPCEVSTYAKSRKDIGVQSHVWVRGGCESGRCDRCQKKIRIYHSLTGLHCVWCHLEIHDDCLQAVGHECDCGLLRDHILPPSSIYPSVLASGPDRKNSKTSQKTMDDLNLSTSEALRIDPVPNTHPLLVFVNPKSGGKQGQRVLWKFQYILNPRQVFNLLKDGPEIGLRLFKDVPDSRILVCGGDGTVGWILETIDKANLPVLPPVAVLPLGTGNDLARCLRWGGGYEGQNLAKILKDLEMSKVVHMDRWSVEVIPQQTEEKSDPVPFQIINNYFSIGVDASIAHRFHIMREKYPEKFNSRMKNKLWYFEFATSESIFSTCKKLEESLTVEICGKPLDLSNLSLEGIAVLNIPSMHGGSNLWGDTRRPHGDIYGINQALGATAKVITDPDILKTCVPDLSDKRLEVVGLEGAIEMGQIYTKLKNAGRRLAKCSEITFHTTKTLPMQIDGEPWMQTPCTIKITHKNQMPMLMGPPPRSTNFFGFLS

Molecules are shown by their SMILES. pIC50: −log10 of the molar value. The match of structure and compound is tentative.

Assay [1] addresses Full length DGKζ (in-house protein M1-V929) (Homo sapiens, UniProt Q13574). The assay can be described thus: Biochemical DGK IC50 assay (ADP-Glo, lipid micelle substrate), DGKζ. The following applies: read-out: IC50s for DGKζ, 0.5 nM enzyme, 140 μM ATP, 80 μM DAG, 1 hour preincubation, 1 hour reaction, room temperature. On the technique in general: ADP-Glo turns the ADP formed in a reaction into a luminescent signal.

The target of assay [2] is Full length DGKα (D21-10BG, SignalChem) (Homo sapiens, UniProt P23743). In words: Biochemical DGK IC50 assay (ADP-Glo, lipid micelle substrate), DGKα. Particulars: read-out: IC50s for DGKα, 7.5 nM enzyme, 140 μM ATP, 80 μM DAG, 1 hour preincubation, 1 hour reaction, room temperature.

Turning to `CC(c1ccc2ncc(C(F)F)nc2c1)N1C[C@H](C)N(c2cc(=O)n(C)n3cc(CC#N)nc23)C[C@H]1C` (some centres unmarked), the pIC50 is 7.72 in assay [1] and 5.62 in assay [2].
Taken in the same sequence, the figures for `CC[C@H]1CN(C(C)c2ccc3nc(C)sc3c2)[C@H](C)CN1c1cc(=O)n(C)n2cc(CC#N)nc12` (some centres unmarked) were 6.98 and 6.39.
The matching figures for `CC[C@H]1CN(C(C)c2ccc(C(F)F)cn2)[C@H](CC)CN1c1cc(=O)n(C)n2cc(CC#N)nc12` (single isomer, unassigned) [A78a]: 6.89 and 6.68.
Regarding `CC[C@H]1CN(C(C)c2ccc(C(F)F)cn2)[C@H](CC)CN1c1cc(=O)n(C)n2cc(CC#N)nc12` (single isomer, unassigned) [A78b], the pIC50 in assay [1] is 5.54; in assay [2], 6.25.
The matching figures for `CC[C@H]1CN(C(C)c2ccc(C(F)(F)F)cn2)[C@H](CC)CN1c1cc(=O)n(C)n2cc(CC#N)nc12` (single isomer, unassigned) [A79a]: 6.95 and 6.45.
Taken in the same sequence, the figures for `CC[C@H]1CN(C(C)c2ccc(C(F)(F)F)cn2)[C@H](CC)CN1c1cc(=O)n(C)n2cc(CC#N)nc12` (single isomer, unassigned) [A79b] were 5.80 and 6.28.
The matching figures for `CC[C@H]1CN(C(C)c2ccc3nc(C)sc3n2)[C@H](C)CN1c1cc(=O)n(C)n2cc(CC#N)nc12` (single isomer, unassigned) [Compound A121b]: 5.15 and 5.50.
